According to patent publication EP0395313B1, “Tertiary alkyl functionalized piperazine derivatives” (AMERICAN HOME PRODUCTS CORPORATION, priority 1989, dated 1990):
Some entries share one result that the patent states for a list of compounds. At least one structure is not confirmed: it was looked up by name or label, or the drawing left a doubt.

The chains behind the UniProt entries cited, without tags or fusion partners.
UniProt P61169, whole entry: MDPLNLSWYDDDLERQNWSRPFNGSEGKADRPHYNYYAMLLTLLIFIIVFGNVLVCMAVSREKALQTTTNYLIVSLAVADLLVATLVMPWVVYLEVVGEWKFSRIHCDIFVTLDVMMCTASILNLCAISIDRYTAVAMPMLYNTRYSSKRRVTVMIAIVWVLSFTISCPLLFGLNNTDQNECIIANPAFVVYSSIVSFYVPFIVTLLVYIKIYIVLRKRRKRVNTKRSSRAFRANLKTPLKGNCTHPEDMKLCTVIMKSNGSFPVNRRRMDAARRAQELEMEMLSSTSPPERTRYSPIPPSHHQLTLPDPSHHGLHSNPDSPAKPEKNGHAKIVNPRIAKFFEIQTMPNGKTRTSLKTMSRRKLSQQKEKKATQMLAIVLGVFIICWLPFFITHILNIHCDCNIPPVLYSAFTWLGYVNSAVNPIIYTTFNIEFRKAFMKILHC

Biological target: D2 dopamine receptor (Rattus norvegicus, UniProt P61169)
Assay: D2 dopamine receptor binding study with 3H-spiroperiodol in homogenized limbic brain tissue
Conditions: qualitative statement
Experimental: The D2 dopamine receptor binding study was in accordance with a modification of the procedure of Field et al., Brain Res., 136, pp. 578-584 (1977) and Yamamura et al., eds., Neurotransmitter Receptor Binding, Raven Press, N.Y. (1978), wherein homogenized limbic brain tissue is incubated with ^3H-spiroperiodol and various concentrations of test compounds, filtered and washed and shaken with Hydrofluoro scintillation cocktail (National Diagnostics) and counted in a Packard 460CD scintillation counter.

COc1ccccc1N1CCN(CC(Cc2ccccc2)C(=O)NC(C)(C)C)CC1 (racemic) [Example 3, N-Tertiary-butyl 2-[[4-(2-methoxyphenyl)piperazinyl]methyl]-3-phenyl-propanamide]
D2 receptor binding (in words): very weak
